The target in this assay is S100A10 (human (endogenous in TIME, MCF7 and A549 cells)) (UniProt P60903). Nature of the assay: co-IP; non-nuclear fractions of TIME, MCF7 and A549 cells, untreated or treated with 10 Gy IR or 1 mM H2O2 for 2 hours; immunoprecipitation with antibodies against annexin A2 or S100A10 and protein G-Sepharose, western blot. For orientation: Immunoblotting shows a protein as a band on a membrane.

By UniProt entry, the sequences of proteins in these tests, tags left out.
UniProt P60903: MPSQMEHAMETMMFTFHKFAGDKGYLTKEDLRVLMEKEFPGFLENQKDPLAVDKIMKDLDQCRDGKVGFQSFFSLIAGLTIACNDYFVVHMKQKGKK
UniProt P07355: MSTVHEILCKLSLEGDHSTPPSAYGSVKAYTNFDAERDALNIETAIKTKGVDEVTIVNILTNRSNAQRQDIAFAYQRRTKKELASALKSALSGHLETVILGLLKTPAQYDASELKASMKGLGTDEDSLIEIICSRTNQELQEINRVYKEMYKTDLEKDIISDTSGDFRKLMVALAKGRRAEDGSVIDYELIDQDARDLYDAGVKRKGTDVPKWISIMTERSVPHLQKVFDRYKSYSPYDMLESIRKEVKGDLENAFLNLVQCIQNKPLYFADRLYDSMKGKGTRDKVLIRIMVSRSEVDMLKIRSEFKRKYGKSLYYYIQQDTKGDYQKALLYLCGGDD

Results are given in words; binding and its absence hold for the method and conditions named. Binding seen in cells or lysates may run through a third protein. Some entries that bind do so weakly or less than the wild type.

For the substance annexin A2 (from UniProt P07355 1-339), the binding entry is “binds”.

The values above are taken from publication PMC3511559.
